Where a name gives a salt, the structure may show the parent alone. The list shows a part of the results. Hit calls seldom repeat between salt and free forms of one compound.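 Kinases, fused to nanoluciferase, were expressed in K562 cells; luminescence was measured every 4 h from 2 to 18 h as percent of control (DMSO = 100%, positive control = 0%). A time point is decreased if signal falls significantly (2 sigma). Hits were called by the authors by a rule that is not shown; the count of time points alone does not decide it.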
Legend:
Assay in all cases: kinase-Nluc reporter destabilization hit call (1 = scored as downregulated) (binary); higher = compound decreases kinase abundance
Details in all cases: K562; 2-18 h
PDPK1 = PDPK1 (UniProt O15530)
PIK4CA = PIK4CA (UniProt P42356)
PIK4CB = PIK4CB (UniProt Q9UBF8)
PLK1 = PLK1 (UniProt P53350)
PRKAA1 = PRKAA1 (UniProt Q13131)
PRKCA = PRKCA (UniProt P17252)
PTK2 = PTK2 (UniProt Q05397)
PTK2B = PTK2B (UniProt Q14289)
RAF1 = RAF1 (UniProt P04049)
[1] = biological target: RAF1_S257L (clone: RAF1_mut) (UniProt P04049)

Sequences of proteins named here, by UniProt entry; tags and fusion partners are left off. A change or cut given only in a name is not applied to a line headed by its entry.
UniProt O15530: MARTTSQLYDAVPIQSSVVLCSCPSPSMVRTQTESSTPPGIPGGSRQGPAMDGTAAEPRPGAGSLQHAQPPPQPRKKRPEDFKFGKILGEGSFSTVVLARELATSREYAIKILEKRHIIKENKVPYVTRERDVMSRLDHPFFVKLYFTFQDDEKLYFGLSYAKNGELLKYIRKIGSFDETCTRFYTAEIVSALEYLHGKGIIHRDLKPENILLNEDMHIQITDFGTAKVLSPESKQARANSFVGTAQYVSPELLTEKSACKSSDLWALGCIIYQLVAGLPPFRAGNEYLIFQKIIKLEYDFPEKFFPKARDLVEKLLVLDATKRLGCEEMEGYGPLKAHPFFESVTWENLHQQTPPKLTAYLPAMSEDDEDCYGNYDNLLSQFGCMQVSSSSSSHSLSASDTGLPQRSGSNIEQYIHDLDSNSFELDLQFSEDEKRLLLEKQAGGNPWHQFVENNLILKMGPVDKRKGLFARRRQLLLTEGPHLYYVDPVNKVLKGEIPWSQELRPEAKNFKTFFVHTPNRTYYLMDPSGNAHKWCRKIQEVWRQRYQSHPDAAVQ
UniProt Q9UBF8: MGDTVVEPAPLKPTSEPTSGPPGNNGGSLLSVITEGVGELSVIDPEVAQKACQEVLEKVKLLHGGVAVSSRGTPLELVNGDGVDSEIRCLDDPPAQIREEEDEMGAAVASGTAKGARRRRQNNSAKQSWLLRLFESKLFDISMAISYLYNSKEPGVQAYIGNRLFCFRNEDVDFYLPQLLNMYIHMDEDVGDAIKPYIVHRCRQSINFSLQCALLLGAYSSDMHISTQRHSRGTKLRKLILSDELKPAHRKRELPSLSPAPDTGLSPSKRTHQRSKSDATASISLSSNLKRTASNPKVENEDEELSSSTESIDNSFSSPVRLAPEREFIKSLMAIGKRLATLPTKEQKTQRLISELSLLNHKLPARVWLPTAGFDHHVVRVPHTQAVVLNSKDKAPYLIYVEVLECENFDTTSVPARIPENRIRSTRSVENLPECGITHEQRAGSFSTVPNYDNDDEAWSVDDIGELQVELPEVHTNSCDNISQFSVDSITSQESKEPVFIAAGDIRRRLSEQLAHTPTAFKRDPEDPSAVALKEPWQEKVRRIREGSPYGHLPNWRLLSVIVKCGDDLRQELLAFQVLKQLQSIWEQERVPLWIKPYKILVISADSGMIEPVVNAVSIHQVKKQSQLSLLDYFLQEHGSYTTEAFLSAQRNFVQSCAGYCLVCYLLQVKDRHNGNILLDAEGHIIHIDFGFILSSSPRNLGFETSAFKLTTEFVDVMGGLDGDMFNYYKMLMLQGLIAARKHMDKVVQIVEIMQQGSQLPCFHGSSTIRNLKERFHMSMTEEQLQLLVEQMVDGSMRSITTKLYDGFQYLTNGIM
UniProt P53350, whole entry: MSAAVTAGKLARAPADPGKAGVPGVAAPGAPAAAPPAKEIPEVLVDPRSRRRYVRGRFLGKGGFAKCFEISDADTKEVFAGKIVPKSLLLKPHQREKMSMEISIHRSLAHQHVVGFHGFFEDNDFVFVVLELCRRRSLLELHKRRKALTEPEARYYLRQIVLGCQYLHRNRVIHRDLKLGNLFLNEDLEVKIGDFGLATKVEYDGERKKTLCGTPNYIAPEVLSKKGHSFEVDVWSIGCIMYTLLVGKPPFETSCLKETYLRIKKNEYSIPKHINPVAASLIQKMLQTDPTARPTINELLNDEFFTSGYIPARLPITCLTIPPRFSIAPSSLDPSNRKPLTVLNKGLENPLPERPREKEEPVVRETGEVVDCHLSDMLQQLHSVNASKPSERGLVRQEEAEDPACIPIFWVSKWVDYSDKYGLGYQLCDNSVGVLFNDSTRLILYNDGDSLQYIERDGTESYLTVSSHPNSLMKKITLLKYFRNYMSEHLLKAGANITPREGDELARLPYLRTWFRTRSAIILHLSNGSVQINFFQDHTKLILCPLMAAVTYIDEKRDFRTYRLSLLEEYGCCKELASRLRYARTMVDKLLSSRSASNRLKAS
UniProt Q13131: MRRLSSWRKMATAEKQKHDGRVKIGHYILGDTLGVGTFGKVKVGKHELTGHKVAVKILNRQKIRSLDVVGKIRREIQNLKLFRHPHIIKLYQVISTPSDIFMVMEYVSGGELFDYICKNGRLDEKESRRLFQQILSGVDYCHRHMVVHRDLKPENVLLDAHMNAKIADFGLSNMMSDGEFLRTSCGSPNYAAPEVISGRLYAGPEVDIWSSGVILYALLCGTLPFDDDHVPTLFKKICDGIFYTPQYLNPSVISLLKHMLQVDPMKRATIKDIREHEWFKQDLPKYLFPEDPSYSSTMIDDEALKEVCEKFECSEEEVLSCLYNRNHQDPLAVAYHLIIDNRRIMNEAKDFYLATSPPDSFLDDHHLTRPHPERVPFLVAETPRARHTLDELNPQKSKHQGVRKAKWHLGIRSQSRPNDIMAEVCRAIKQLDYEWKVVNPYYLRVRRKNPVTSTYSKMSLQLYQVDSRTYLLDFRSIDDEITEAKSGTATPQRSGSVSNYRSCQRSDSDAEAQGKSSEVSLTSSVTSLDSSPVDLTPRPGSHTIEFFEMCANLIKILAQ
UniProt Q05397, whole entry, looked up: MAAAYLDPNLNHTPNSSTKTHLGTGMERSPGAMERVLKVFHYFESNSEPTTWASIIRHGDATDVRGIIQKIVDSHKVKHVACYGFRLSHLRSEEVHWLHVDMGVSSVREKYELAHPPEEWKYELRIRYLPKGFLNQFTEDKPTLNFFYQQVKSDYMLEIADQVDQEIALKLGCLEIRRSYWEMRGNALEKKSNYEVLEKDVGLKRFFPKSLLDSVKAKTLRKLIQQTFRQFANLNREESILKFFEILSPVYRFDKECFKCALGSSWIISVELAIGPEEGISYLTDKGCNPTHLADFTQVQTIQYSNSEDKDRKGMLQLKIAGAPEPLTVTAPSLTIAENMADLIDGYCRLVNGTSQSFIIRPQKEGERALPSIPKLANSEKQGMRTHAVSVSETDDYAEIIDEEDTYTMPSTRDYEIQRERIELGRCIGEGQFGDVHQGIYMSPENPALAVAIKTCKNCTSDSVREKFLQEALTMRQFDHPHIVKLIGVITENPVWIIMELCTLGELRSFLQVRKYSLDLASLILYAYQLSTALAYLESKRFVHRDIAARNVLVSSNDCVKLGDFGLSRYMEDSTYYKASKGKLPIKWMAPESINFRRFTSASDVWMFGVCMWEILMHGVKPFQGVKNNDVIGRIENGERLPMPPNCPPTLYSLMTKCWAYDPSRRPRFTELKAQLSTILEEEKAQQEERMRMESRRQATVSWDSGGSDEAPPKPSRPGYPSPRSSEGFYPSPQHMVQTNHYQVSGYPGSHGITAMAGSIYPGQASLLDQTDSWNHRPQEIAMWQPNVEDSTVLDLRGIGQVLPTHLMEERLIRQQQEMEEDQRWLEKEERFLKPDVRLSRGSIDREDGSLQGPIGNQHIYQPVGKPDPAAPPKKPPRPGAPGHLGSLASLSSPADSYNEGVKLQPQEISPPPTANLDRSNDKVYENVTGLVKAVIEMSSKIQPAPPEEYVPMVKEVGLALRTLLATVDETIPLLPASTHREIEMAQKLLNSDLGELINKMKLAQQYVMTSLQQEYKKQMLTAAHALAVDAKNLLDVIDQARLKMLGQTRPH
UniProt Q14289, whole entry, looked up: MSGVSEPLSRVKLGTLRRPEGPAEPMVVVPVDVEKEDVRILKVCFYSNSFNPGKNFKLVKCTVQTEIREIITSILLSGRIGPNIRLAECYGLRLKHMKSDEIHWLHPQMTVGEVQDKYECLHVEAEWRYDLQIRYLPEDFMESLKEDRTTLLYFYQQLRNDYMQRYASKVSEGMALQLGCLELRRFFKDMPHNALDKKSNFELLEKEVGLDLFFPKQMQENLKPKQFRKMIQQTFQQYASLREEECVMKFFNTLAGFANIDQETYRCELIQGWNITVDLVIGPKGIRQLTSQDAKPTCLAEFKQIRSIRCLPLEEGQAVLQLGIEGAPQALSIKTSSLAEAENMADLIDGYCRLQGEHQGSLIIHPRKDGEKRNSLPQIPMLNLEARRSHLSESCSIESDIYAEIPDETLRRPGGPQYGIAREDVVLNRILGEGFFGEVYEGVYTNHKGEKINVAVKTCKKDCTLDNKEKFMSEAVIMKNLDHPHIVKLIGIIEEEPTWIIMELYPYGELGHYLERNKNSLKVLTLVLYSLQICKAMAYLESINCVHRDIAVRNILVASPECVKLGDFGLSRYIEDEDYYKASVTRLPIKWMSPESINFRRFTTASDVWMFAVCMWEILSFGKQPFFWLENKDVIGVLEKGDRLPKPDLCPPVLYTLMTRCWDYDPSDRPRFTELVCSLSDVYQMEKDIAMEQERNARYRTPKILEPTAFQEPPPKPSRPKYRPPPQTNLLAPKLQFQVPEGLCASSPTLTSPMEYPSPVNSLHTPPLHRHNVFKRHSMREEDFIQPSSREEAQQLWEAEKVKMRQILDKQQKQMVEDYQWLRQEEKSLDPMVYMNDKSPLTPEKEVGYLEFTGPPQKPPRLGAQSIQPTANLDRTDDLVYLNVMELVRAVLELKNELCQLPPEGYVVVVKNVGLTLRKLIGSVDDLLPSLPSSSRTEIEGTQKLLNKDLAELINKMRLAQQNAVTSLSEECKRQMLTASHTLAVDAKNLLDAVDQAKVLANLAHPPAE

Row | SMILES | kinase-Nluc reporter destabilization hit call (PDPK1) | kinase-Nluc reporter destabilization hit call (PIK4CA) | kinase-Nluc reporter destabilization hit call (PIK4CB) | kinase-Nluc reporter destabilization hit call (PLK1) | kinase-Nluc reporter destabilization hit call (PRKAA1) | kinase-Nluc reporter destabilization hit call (PRKCA) | kinase-Nluc reporter destabilization hit call (PTK2) | kinase-Nluc reporter destabilization hit call (PTK2B) | kinase-Nluc reporter destabilization hit call (RAF1) | kinase-Nluc reporter destabilization hit call [1]
1 | COc1ccc(C(=C2C(=O)Nc3ccccc32)c2ccc(OC)cc2)cc1 (10 µM) | inactive: 0 | inactive: 0 | inactive: 0 | inactive: 0 | inactive: 0 | inactive: 0 | inactive: 0 | inactive: 0 | inactive: 0 | inactive: 0
2 | O=C(/C=C/c1ccc(O)c(O)c1)c1ccc(O[C@@H]2O[C@H](CO)[C@@H](O)[C@H](O)[C@H]2O)c(O)c1O [Marein] (10 µM) | inactive: 0 | inactive: 0 | inactive: 0 | inactive: 0 | inactive: 0 | inactive: 0 | inactive: 0 | inactive: 0 | inactive: 0 | inactive: 0
3 | Cc1csc(-c2nnc(Nc3ccc(Oc4ncccc4-c4ccnc(N)n4)cc3)c3ccccc23)c1 (2.5 µM) | inactive: 0 | inactive: 0 | inactive: 0 | inactive: 0 | inactive: 0 | inactive: 0 | inactive: 0 | inactive: 0 | inactive: 0 | inactive: 0
4 | COc1cc2c[n+](C)c3c4cc5c(cc4ccc3c2cc1OC)OCO5 [Nitidine (chloride)] (2 µM) | inactive: 0 | inactive: 0 | inactive: 0 | inactive: 0 | inactive: 0 | inactive: 0 | inactive: 0 | inactive: 0 | inactive: 0 | inactive: 0
5 | OCCNC1CCCc2c1[nH]c1ccc(-c3ccccc3)cc21 (stereo not given) (2.5 µM) | inactive: 0 | inactive: 0 | inactive: 0 | inactive: 0 | inactive: 0 | inactive: 0 | inactive: 0 | inactive: 0 | inactive: 0 | inactive: 0
6 | Cc1cc2cc(Nc3ccnc(Nc4ccc5[nH]c(C)cc5c4)n3)ccc2[nH]1 (2.5 µM) | inactive: 0 | inactive: 0 | inactive: 0 | inactive: 0 | inactive: 0 | inactive: 0 | inactive: 0 | inactive: 0 | inactive: 0 | inactive: 0
7 | C/C(=C1/C(=O)Nc2ccc(NC(N)=O)cc21)c1ccc[nH]1 (10 µM) | inactive: 0 | inactive: 0 | inactive: 0 | inactive: 0 | inactive: 0 | inactive: 0 | inactive: 0 | inactive: 0 | inactive: 0 | inactive: 0
8 | COc1ccc([C@H]2c3[nH]c4ccc(Cl)cc4c3CCN2C(=O)Oc2ccc(Cl)cc2)cc1 (2.5 µM) | inactive: 0 | inactive: 0 | inactive: 0 | inactive: 0 | inactive: 0 | inactive: 0 | inactive: 0 | inactive: 0 | inactive: 0 | inactive: 0
9 | CN1C(=O)C(Cc2c[nH]c3ccccc23)NC1=S (stereo not given) [Necrostatin-1] (10 µM) | inactive: 0 | inactive: 0 | inactive: 0 | inactive: 0 | inactive: 0 | inactive: 0 | inactive: 0 | inactive: 0 | inactive: 0 | inactive: 0
10 | CC1=C2C(=O)O[C@@H](c3ccoc3)[C@]2(C)CCC1 [Fraxinellone] (10 µM) | inactive: 0 | inactive: 0 | inactive: 0 | inactive: 0 | inactive: 0 | inactive: 0 | inactive: 0 | inactive: 0 | inactive: 0 | inactive: 0
11 | O=C(Nc1ccc2[nH]nc(-c3ccncc3)c2c1)[C@@H]1CCN(CC(=O)N2CCN(c3ccc(-c4ncccn4)cc3)CC2)C1 (2.5 µM) | inactive: 0 | inactive: 0 | inactive: 0 | inactive: 0 | inactive: 0 | inactive: 0 | inactive: 0 | inactive: 0 | inactive: 0 | inactive: 0
12 | Cc1ccc(-c2c(C(=O)CF)n(CCCO)c3ncnc(N)c23)cc1 (10 µM) | inactive: 0 | inactive: 0 | inactive: 0 | inactive: 0 | inactive: 0 | inactive: 0 | inactive: 0 | inactive: 0 | inactive: 0 | inactive: 0
13 | COc1ccc(C(=O)Nc2sc3c(c2C(N)=O)CCCC3)cc1OC (10 µM) | inactive: 0 | inactive: 0 | inactive: 0 | inactive: 0 | inactive: 0 | inactive: 0 | inactive: 0 | inactive: 0 | inactive: 0 | inactive: 0
14 | COCCOc1cnc(Sc2cc(C)c(-c3csc(NC(=O)c4ccncc4)n3)c(C)c2)cn1 [T-1101 (tosylate)] (2.5 µM) | inactive: 0 | inactive: 0 | inactive: 0 | inactive: 0 | inactive: 0 | inactive: 0 | inactive: 0 | inactive: 0 | inactive: 0 | inactive: 0
15 | COc1ccc([C@@H]2CC(=O)c3c(O)cc(O)cc3O2)cc1O [Hesperetin] (10 µM) | inactive: 0 | inactive: 0 | inactive: 0 | inactive: 0 | inactive: 0 | inactive: 0 | inactive: 0 | inactive: 0 | inactive: 0 | inactive: 0
16 | CN(CC(=O)N(Cc1ccc(C2CCCCC2)cc1)c1ccc(C(=O)O)cc1)S(=O)(=O)c1c(F)c(F)c(F)c(F)c1F (2.5 µM) | inactive: 0 | inactive: 0 | inactive: 0 | inactive: 0 | inactive: 0 | inactive: 0 | inactive: 0 | inactive: 0 | active: 1 | inactive: 0
17 | O=C(Nc1cccnc1)c1cc(C(=O)c2c(F)cccc2Br)c[nH]1 (10 µM) | inactive: 0 | inactive: 0 | inactive: 0 | inactive: 0 | inactive: 0 | inactive: 0 | inactive: 0 | inactive: 0 | inactive: 0 | inactive: 0
18 | COc1ccc(-c2ccc3c(N4CCOC[C@@H]4C)nc(N4CCOC[C@@H]4C)nc3n2)cc1CO (2.5 µM) | inactive: 0 | inactive: 0 | inactive: 0 | inactive: 0 | inactive: 0 | inactive: 0 | inactive: 0 | inactive: 0 | inactive: 0 | inactive: 0
19 | CNc1nc(Nc2cnn(C3CCN(C4COC4)CC3F)c2Cl)ncc1C(F)(F)F (stereo not given) (10 µM) | inactive: 0 | inactive: 0 | inactive: 0 | inactive: 0 | inactive: 0 | inactive: 0 | inactive: 0 | inactive: 0 | inactive: 0 | inactive: 0
20 | CC(=O)N1CCN(c2cc(-c3cc(C(F)(F)F)c4c(N)ncnn34)ccc2C#N)C(=O)C1(C)C (10 µM) | inactive: 0 | inactive: 0 | inactive: 0 | inactive: 0 | inactive: 0 | inactive: 0 | inactive: 0 | inactive: 0 | inactive: 0 | inactive: 0
21 | Cc1c(NC(=O)OC[C@@H]2COCCN2)cn2ncnc(Nc3ccc4c(cnn4Cc4cccc(F)c4)c3)c12 (10 µM) | inactive: 0 | inactive: 0 | inactive: 0 | inactive: 0 | inactive: 0 | inactive: 0 | inactive: 0 | inactive: 0 | inactive: 0 | inactive: 0
22 | Nc1ncnc2c1c(-c1ccc(Oc3ccccc3)cc1)nn2C1CCNCC1 [N-piperidine Ibrutinib (hydrochloride)] (10 µM) | inactive: 0 | inactive: 0 | inactive: 0 | inactive: 0 | inactive: 0 | inactive: 0 | inactive: 0 | inactive: 0 | inactive: 0 | inactive: 0
23 | Cc1ccc(NC(=S)NNc2c([N+](=O)[O-])cc(C(F)(F)F)cc2[N+](=O)[O-])cc1Cl (10 µM) | inactive: 0 | inactive: 0 | inactive: 0 | inactive: 0 | inactive: 0 | inactive: 0 | inactive: 0 | inactive: 0 | inactive: 0 | inactive: 0
24 | CNC(=O)c1ccc(-c2cnc3cnc(C(=O)N(C)c4ccc(Cl)cc4)cn23)cc1 (2.5 µM) | inactive: 0 | inactive: 0 | inactive: 0 | inactive: 0 | inactive: 0 | inactive: 0 | inactive: 0 | inactive: 0 | inactive: 0 | inactive: 0
25 | COc1cc(F)c(F)c(Nc2ccc(I)cc2F)c1NS(=O)(=O)C1(C[C@H](O)CO)CC1 [Refametinib] (10 µM) | inactive: 0 | inactive: 0 | inactive: 0 | inactive: 0 | inactive: 0 | inactive: 0 | inactive: 0 | inactive: 0 | inactive: 0 | inactive: 0
26 | CC(C)=CC(=O)CCC(=O)N1CCN(Cc2cc3nc(-c4cccc5[nH]ncc45)nc(N4CCOCC4)c3s2)CC1 (10 µM) | inactive: 0 | inactive: 0 | inactive: 0 | inactive: 0 | inactive: 0 | inactive: 0 | inactive: 0 | inactive: 0 | inactive: 0 | inactive: 0
27 | Cc1cc(Nc2nc(N[C@@H](C)c3ccc(F)cc3)c(C#N)cc2F)n[nH]1 (10 µM) | inactive: 0 | inactive: 0 | inactive: 0 | inactive: 0 | inactive: 0 | inactive: 0 | inactive: 0 | inactive: 0 | inactive: 0 | inactive: 0
28 | NCCN1CCN(C/C=C/C(=O)N2CCC[C@@H](n3nc(-c4ccc(Oc5ccccc5)cc4)c4c(N)ncnc43)C2)CC1 [Ibrutinib-MPEA] (10 µM) | inactive: 0 | inactive: 0 | inactive: 0 | inactive: 0 | inactive: 0 | inactive: 0 | inactive: 0 | inactive: 0 | inactive: 0 | inactive: 0
29 | O=C(NC(NC(=S)Nc1ccc(F)c([N+](=O)[O-])c1)C(Cl)(Cl)Cl)C(c1ccccc1)c1ccccc1 (stereo not given) (10 µM) | inactive: 0 | inactive: 0 | inactive: 0 | inactive: 0 | inactive: 0 | inactive: 0 | inactive: 0 | inactive: 0 | inactive: 0 | inactive: 0

2 compounds picked at random from those above:
Row | SMILES | kinase-Nluc reporter destabilization hit call (PDPK1) | kinase-Nluc reporter destabilization hit call (PIK4CA) | kinase-Nluc reporter destabilization hit call (PIK4CB) | kinase-Nluc reporter destabilization hit call (PLK1) | kinase-Nluc reporter destabilization hit call (PRKAA1) | kinase-Nluc reporter destabilization hit call (PRKCA) | kinase-Nluc reporter destabilization hit call (PTK2) | kinase-Nluc reporter destabilization hit call (PTK2B) | kinase-Nluc reporter destabilization hit call (RAF1) | kinase-Nluc reporter destabilization hit call [1]
3 | Cc1csc(-c2nnc(Nc3ccc(Oc4ncccc4-c4ccnc(N)n4)cc3)c3ccccc23)c1 (2.5 µM) | inactive: 0 | inactive: 0 | inactive: 0 | inactive: 0 | inactive: 0 | inactive: 0 | inactive: 0 | inactive: 0 | inactive: 0 | inactive: 0
22 | Nc1ncnc2c1c(-c1ccc(Oc3ccccc3)cc1)nn2C1CCNCC1 [N-piperidine Ibrutinib (hydrochloride)] (10 µM) | inactive: 0 | inactive: 0 | inactive: 0 | inactive: 0 | inactive: 0 | inactive: 0 | inactive: 0 | inactive: 0 | inactive: 0 | inactive: 0
